These are yes or no findings as the source states them, for the method shown. In cells and extracts the contact can be indirect. Some entries that bind do so weakly or less than the wild type.
Experiments:
[1] = biological target: T1, endogenous GEF-H1 (human) (UniProt Q92974); assay: co-immunoprecipitation with anti-PAK4 from human tumour cell lysates, GEF-H1 Western blot
T1 sequence (looked up): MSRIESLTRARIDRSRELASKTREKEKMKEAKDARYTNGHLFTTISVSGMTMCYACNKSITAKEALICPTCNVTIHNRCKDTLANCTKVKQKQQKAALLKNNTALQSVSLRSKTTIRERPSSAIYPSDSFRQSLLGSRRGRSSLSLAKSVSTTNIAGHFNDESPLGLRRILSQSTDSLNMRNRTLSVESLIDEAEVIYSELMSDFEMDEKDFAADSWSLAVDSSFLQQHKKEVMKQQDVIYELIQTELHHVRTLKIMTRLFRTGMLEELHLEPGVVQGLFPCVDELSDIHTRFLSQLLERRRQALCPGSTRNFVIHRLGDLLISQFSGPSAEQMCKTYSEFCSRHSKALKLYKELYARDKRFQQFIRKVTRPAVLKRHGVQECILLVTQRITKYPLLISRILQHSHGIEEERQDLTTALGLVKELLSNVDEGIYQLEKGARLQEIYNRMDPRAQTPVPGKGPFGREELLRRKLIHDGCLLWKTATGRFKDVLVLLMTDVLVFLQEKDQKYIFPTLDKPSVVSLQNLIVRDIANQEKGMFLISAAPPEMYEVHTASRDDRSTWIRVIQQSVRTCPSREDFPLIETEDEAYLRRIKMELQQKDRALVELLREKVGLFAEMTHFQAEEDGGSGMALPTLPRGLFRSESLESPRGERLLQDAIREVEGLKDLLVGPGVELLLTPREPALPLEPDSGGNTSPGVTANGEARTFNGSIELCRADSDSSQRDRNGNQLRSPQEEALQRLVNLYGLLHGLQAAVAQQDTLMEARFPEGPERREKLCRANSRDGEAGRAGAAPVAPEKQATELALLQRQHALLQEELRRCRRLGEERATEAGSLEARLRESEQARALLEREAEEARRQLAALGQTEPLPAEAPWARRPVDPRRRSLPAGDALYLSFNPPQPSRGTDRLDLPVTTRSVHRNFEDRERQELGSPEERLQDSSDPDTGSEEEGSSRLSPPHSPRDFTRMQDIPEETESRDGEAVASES

Chains of the proteins cited; added tags and fusions are not shown.
UniProt O96013: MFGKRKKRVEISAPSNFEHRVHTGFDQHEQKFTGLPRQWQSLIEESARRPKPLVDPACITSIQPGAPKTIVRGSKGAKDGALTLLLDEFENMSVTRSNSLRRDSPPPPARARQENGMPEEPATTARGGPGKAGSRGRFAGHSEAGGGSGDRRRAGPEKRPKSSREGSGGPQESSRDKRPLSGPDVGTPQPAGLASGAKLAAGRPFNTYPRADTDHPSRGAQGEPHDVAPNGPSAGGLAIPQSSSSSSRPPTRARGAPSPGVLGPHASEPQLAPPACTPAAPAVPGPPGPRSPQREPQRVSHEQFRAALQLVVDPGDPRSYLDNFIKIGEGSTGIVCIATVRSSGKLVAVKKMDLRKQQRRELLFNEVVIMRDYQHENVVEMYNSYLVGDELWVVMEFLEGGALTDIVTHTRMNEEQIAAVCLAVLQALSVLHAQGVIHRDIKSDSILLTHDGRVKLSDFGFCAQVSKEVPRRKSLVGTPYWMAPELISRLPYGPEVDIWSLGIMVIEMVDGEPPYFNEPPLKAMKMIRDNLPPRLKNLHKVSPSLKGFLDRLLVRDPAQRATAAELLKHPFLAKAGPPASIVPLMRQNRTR

[2] = biological target: T1, endogenous GEF-H1 (human); assay: co-immunoprecipitation with anti-PAK4 from A549, HCT116 and H1299 lysates, GEF-H1 Western blot
[3] = biological target: T1, endogenous GEF-H1 (human); assay: co-immunoprecipitation with PAK4 antibody on Protein G beads from A549, HCT116 and H1299 lysates

Measured: binding

endogenous PAK4 (from UniProt O96013 1-591) (enzyme)
binds: all assays above

Reference: patent US20040091907A1
